The values below come from PMC7378191.

The chains behind the UniProt entries cited, without tags or fusion partners.
UniProt Q92793: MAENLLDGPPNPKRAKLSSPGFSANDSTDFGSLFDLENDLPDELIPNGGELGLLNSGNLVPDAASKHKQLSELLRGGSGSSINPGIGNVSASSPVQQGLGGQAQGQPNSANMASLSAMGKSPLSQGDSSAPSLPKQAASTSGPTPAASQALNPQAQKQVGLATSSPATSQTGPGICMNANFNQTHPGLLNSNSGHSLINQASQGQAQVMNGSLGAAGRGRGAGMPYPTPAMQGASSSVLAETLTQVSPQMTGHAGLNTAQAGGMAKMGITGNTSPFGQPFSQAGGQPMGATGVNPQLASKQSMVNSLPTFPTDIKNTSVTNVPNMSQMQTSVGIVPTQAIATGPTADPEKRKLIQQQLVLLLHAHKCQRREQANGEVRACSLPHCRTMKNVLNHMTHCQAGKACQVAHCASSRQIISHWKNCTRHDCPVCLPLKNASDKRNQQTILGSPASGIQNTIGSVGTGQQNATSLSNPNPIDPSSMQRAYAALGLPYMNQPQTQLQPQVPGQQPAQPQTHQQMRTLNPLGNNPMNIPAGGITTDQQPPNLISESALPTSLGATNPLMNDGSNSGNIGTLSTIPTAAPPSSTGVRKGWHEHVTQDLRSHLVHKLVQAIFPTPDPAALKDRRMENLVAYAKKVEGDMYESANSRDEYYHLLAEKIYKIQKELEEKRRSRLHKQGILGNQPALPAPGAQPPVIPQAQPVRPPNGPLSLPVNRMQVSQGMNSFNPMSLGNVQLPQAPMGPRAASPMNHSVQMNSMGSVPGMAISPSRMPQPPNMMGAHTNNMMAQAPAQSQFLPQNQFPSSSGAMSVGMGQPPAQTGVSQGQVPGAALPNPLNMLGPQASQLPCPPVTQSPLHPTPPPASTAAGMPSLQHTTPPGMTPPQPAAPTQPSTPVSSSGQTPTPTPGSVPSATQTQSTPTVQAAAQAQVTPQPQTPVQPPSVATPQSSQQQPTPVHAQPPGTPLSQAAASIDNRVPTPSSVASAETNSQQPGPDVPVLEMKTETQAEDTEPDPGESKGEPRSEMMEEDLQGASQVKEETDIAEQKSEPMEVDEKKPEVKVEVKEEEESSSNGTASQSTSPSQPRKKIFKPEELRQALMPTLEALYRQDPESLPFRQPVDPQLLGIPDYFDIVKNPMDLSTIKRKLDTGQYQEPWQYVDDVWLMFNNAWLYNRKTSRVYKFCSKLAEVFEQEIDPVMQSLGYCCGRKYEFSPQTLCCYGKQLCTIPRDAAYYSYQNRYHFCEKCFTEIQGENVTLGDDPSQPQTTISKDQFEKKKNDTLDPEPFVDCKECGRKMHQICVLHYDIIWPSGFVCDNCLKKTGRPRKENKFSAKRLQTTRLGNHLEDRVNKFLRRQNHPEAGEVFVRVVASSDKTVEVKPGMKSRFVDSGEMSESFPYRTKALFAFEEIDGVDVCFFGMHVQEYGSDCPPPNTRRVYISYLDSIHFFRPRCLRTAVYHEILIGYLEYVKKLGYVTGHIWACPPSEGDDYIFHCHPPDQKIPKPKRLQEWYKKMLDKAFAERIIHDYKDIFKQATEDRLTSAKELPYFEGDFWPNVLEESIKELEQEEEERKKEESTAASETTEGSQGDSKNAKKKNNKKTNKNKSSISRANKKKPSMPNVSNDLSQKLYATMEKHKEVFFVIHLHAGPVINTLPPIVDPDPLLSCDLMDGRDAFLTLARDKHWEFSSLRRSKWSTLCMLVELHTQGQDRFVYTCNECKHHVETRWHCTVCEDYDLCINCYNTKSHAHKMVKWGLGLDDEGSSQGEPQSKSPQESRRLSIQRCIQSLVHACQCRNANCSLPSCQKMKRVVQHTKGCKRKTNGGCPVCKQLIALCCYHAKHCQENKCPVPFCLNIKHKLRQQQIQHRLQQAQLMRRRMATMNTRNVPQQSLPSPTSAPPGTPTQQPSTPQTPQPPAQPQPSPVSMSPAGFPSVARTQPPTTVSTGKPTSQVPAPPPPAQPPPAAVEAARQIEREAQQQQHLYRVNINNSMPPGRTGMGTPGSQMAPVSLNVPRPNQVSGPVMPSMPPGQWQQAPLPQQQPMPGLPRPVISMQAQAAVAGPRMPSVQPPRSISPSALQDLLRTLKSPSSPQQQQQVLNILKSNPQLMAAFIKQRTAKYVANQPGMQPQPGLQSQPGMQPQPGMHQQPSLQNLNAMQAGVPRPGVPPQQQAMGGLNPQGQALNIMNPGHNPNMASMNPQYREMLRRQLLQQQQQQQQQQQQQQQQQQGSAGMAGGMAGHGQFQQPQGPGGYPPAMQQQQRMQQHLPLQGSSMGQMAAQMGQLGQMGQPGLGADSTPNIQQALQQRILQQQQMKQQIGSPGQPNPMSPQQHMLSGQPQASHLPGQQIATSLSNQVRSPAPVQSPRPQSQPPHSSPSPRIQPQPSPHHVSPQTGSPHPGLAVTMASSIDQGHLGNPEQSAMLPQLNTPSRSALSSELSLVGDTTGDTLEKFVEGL

These are yes or no findings as the source states them, for the method shown. Binding seen in cells or lysates may run through a third protein. Some results given as binding are weak or reduced against the parent protein; the word gives no strength. Where a sequence is shown, tags or fusion partners need not be part of it.

Experiment [1] has as its target T1, Flag-tagged HSD17B10 (17-beta-hydroxysteroid dehydrogenase 10), wild type (human) (UniProt Q99714).
T1 sequence: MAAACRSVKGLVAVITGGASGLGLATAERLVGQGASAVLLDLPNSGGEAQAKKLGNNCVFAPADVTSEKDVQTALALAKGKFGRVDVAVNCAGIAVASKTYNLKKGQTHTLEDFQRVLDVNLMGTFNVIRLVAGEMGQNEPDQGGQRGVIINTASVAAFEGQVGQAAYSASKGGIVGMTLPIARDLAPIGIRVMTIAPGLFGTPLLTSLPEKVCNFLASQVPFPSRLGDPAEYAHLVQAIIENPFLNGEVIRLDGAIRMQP
Briefly: co-IP; tagged proteins co-transfected into HEK293T cells; lysis in BC100 buffer (100 mM NaCl, 20 mM pH7.3 Tris, 20% glycerol, 0.2% NP-40); immunoprecipitation with anti-Flag M2 beads at 4 °C overnight; western blot. (In general: A western blot detects proteins with antibodies after separation by electrophoresis.)

In experiment [2] the target is HA-tagged CBP (acetyltransferase) (UniProt Q92793). Put plainly: co-IP; HA-tagged CBP and Flag-tagged HSD17B10 co-transfected into HEK293T cells; immunoprecipitation with anti-HA beads at 4 °C overnight; western blot.

Regarding “HA-tagged CBP (acetyltransferase) (from UniProt Q92793 1-2442) (enzyme)”, the binding entry in experiment [1] is recorded as “binds”.

B1: Flag-tagged HSD17B10 (17-beta-hydroxysteroid dehydrogenase 10), wild type (protein, UniProt Q99714 1-261)
chain: T1 sequence
Take B1: in experiment [2], the binding entry is “binds”.
